From PMC10322906
No constants are given. Whether binding was seen depends on the method and setting. In cells and extracts the contact can be indirect. Some entries that bind do so weakly or less than the wild type.

Sequences of proteins named here, by UniProt entry; tags and fusion partners are left off.
UniProt P49407: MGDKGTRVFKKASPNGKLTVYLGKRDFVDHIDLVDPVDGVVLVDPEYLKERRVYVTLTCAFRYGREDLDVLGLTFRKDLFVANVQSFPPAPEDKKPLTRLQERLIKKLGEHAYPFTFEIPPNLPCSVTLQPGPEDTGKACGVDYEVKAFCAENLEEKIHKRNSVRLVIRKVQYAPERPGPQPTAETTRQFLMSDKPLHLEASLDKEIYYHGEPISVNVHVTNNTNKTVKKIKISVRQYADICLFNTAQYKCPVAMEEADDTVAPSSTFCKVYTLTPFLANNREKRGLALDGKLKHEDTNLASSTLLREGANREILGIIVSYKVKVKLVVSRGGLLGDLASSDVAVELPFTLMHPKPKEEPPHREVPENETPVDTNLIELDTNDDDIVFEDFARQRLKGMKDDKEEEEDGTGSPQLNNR

Target: AGTR1-RLuc8 (UniProt P30556)
Test: FRET or BRET; BRET2: HEK293T cells transfected with GPCR-RLuc8 and β-arrestin1/2-GFP2; agonist 30 min at 37 °C, Coelenterazine 400a 5 µM

binding	Substance
binds	β-arrestin1-GFP2 (from UniProt P49407 1-418)
binds	β-arrestin2-GFP2 (from UniProt P32121 1-409)
